Test results taken from paper PMC5458187, “Inhibitor SBFI26 suppresses the malignant progression of castration-resistant PC3-M cells by competitively binding to oncogenic FABP5” (Oncotarget, 2017).
Some entries of the source have several records that differ or are many. This list holds those alone. The source may hold further records. Values that stand side by side seem to repeat one measurement (runs, samples, wells or individuals).

Tested on: PC3-M-Luc8 cells implanted orthotopically into the prostate gland
Assay: Orthotopic nude mouse assay of tumorigenicity and metastasis
Details: day 25, 1 mg/kg intraperitoneally

## O=C(O)C1C(c2ccccc2)C(C(=O)Oc2cccc3ccccc23)C1c1ccccc1 (stereo not drawn) [SBFI26, α-truxillic acid 1-naphthyl mono-ester]
  suppression in tumour masses over control (by bioluminescence): about 4.9 fold and 4.9 fold
